Primary screen of a compound library

Sequences of proteins named here, by UniProt entry; tags and fusion partners are left off.
UniProt E9BF75, entry or part of it: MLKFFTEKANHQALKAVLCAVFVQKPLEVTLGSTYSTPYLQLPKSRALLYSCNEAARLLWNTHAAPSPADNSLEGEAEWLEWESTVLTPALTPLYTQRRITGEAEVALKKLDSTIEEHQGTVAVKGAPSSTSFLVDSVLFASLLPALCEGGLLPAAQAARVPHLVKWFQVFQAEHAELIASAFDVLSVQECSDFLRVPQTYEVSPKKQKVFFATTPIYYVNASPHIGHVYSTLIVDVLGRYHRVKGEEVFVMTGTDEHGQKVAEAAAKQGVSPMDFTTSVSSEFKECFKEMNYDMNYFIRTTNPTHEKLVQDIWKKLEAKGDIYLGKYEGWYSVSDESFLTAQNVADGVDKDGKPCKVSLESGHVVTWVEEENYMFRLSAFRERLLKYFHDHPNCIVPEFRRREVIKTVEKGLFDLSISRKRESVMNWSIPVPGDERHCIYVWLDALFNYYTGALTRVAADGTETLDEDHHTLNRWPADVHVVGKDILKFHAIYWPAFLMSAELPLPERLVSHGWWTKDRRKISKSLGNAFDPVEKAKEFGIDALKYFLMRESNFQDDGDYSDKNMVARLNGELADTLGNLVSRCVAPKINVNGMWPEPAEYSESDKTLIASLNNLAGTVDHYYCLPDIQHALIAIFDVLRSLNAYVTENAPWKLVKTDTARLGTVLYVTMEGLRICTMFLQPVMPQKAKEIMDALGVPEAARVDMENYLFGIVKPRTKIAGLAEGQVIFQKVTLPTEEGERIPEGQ

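Primary screen of methionyl-tRNA synthetase; the read-out is not stated. Target: Methionyl-tRNA synthetase (putative), Leishmania donovani (UniProt E9BF75). The test concentration is not given. The values are filed as inhibition. About 68,000 compounds were tested under these conditions; 0.035% (about 24) showed 50% or more at least once.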

Results are percentages, as filed.
The controls that fix the scale are not given in the record; negative values are as filed.
This is an unselected part of the compounds tested.

| SMILES | inhibition |
|---|---|
| `CC(C(=O)N1CCCN(Cc2ccc(C#N)cc2)CC1)n1cccn1` (stereo not shown) | 12.02 |
| `COc1cc(-c2cc(N)ncn2)cc(OC)c1OC` | 9.951 |
| `NC(=O)C1CN(C(=O)NCC2(c3ccc(F)cc3)CCC2)CCO1` (stereo not shown) | 9.763 |
| `c1cc(CNCC2CNc3ccnn3C2)cc(N2CCCCC2)n1` (stereo not shown) | 22.92 |
| `Cc1cc(C)n(CC(C)CNC(=O)CCc2ccco2)n1` (stereo not shown) | 10.14 |
| `COCC(=O)N1C[C@@H](c2cccc(OC)c2)[C@@]2(CCCCC(=O)N2)C1` | 10.64 |
| `CC(=O)N1CCC(CCNC(C)c2cc(C)cc(C)c2)CC1` (stereo not shown) | 1.344 |
| `NC(=O)c1ccc(OCC(=O)NC2CCc3c(F)cccc32)cc1` (stereo not shown) | 8.803 |
| `Cc1cccc(-c2ccc(C(=O)N3CCN(C(C)C)CC3)c(=O)[nH]2)c1` | 11.21 |
| `CC(C)(C)C(O)CN1CCN(Cc2ccc(C#N)cc2)CC1` (stereo not shown) | 5.398 |
| `COCc1nc(-c2ccnc(N3CCNCC3)n2)no1` | 18.87 |
| `O=C(NCCc1ccc2c(c1)OCO2)C1CCCN(Cc2ccco2)C1` (stereo not shown) | 13.97 |
| `COC(=O)c1ccc(NC(=O)CCc2ccco2)cc1` | 9.244 |
| `CCCc1n[nH]c(=O)n1Cc1ccc(OC)cc1` | 0.2825 |
| `COc1ncccc1NC(=O)NCC(O)c1ccc(F)cc1F` (stereo not shown) | 16.67 |
| `O=C(C1CCOC1)N1CCN(Cc2ccncc2)c2ncccc2C1` (stereo not shown) | 15.07 |
| `Cc1cc(CNC(=O)N2CCc3ccccc3C2CO)c(C)o1` (stereo not shown) | 12.63 |
| `COCC1c2c(cnn2C)CCN1C(=O)c1cc(C)on1` (stereo not shown) | 9.351 |
| `CC1CCCCN1C1CN(c2ccnc(C(=O)NCc3ccco3)c2)C1` (stereo not shown) | 17.42 |
| `C[C@@H]1CN(c2ccc(C#N)cn2)CC[C@@]1(O)C1CCOCC1` | 14.6 |
| `Cc1noc(C)c1-c1n[nH]c2c1CN(S(=O)(=O)c1cccnc1)CC2` | 9.422 |
| `Cc1cc(NC(=O)COC(=O)c2ccc(F)cc2Br)n(C)n1` | 7.494 |
| `COc1cccc(CN(C)C(=O)CCC(=O)c2ccc(Cl)cc2)c1OC` | 16.5 |
| `CCC(NC(=O)c1cccc2cc[nH]c12)C(=O)N1CCOCC1` (stereo not shown) | 12.1 |
| `CCC(CNC(=O)OC)(OC)c1ccccc1` (stereo not shown) | 6.475 |
| `CCN(C)c1nccc(N2CCN[C@H]3CS(=O)(=O)C[C@H]32)n1` | 8.681 |
| `CCC1c2ccsc2CCN1Cc1cc2c(cc1OC)OCCO2` (stereo not shown) | 11.7 |
| `N#CCC1CC(c2ccc(F)cc2)=NO1` (stereo not shown) | 9.348 |
| `CN1CCN2C[C@@H](NC(=O)c3nc4ccccc4[nH]3)C[C@H]2C1` | 5.459 |
| `COCCNS(=O)(=O)c1ccc2c(c1)CCN(C(=O)c1cncn1C)C2` | 11.5 |
| `Cc1ncsc1CCN(C)Cc1cc2n(n1)CCN(Cc1ccco1)C2` | 23.43 |
| `CC(=O)N[C@@H]1Cc2ccccc2[C@H]1Nc1ccncn1` | 13.35 |
| `C[C@@H]1CN(CCOCc2ccccc2)CC[C@@]1(O)C1CCC1` | -1.005 |
| `CCCC1CCCN(C(=O)Nc2cccnc2OC)CC1` (stereo not shown) | 9.441 |
| `Cn1nc2c(cc1=O)CN(Cc1nnc(-c3ccco3)o1)CC2` | 11.04 |
| `C[C@@H]1C[C@H](C(F)(F)F)n2nc(C3CCN(S(C)(=O)=O)CC3)cc2N1` | 9.709 |
| `Cc1nc2ccccc2nc1CN1CCCCC1Cn1cncn1` (stereo not shown) | 14.78 |
| `Cc1cccc(CN2C(=O)C[C@H]3[C@@H]2CCN3Cc2ccco2)n1` | 15.06 |
| `CCOc1ccc(NC(=O)Cc2cc(C)[nH]n2)cc1CO` | 16.04 |
| `NCc1n[nH]c(=O)n1-c1cccc(Cl)c1Cl` | -7.673 |
| `Cn1cc(Cl)cc1C(=O)N1CCN(Cc2cccs2)CC1` | 17.37 |
| `Cn1ccnc1SCCNC1CCN(c2nc3ccccc3s2)CC1` | 3.495 |
| `Cc1noc(C)c1CN1CCC(c2nnc(Cn3cccn3)n2C)CC1` | 16.15 |
| `CNS(=O)(=O)CC1CCCN1C(=O)c1ccc2cc[nH]c2c1` (stereo not shown) | 14.63 |
| `CCOC(=O)c1cnn(C2CCN(C(=O)CC(C)(C)C)CC2)c1N` | 5.222 |
| `CC(=O)N1CCCC(Cc2cnc(-n3ccnc3)cn2)C1` (stereo not shown) | 15.43 |
| `Cc1cc(C)n(C2CCN(S(=O)(=O)N3CCOCC3)CC2)n1` | 16.83 |
| `CCN(C)S(=O)(=O)N1CCCC(c2cccc(C(=O)O)c2)C1` (stereo not shown) | 6.406 |
| `c1cnc(NCc2nnn3c2CN(Cc2ccsc2)CCC3)nc1` | 18.56 |
| `CCOC(=O)[C@]12CCCN(Cc3nccs3)C[C@H]1CN(CCN(C)C)C2` | 5.882 |
| `COCCNc1cc(-c2ccccc2C(N)=O)c2cc[nH]c2n1` | 9.375 |
| `CCn1cc(CN(C)C(=O)c2cc(C(F)(F)F)n(C)n2)cn1` | 19.83 |
| `CC1CN(c2ccc(C#N)cn2)CCN1c1ccc2nncn2n1` (stereo not shown) | 14.21 |
| `O=C(c1cccn1Cc1cccs1)N1CCCC1Cn1cccn1` (stereo not shown) | 3.937 |
| `CN(C)CC1CN(Cc2csc(C3CCCC3)n2)CCO1` (stereo not shown) | 12.6 |
| `CCOC1CC2(CCN(C(C)=O)CC2)c2cc(F)ccc21` (stereo not shown) | 15.94 |
| `CC1CCN(CCNC(=O)Nc2ccc(F)cc2Cl)CC1` | -6.522 |
| `CCn1cc(-c2cc(C(F)(F)F)n(CCCN)n2)cn1` | 14.86 |
| `CC(C)=CCCC1(C)CCC(=O)N(CCc2nc(N)cc(O)n2)C1` (stereo not shown) | 0.3155 |
| `CCc1oc(C(=O)N(C)Cc2nonc2C)cc1CN(CC)CC` | 9.677 |
| `O=C(NCc1ccccc1)NCC1CCN(Cc2ccsc2)CC1` | 14.08 |
| `C[C@@H]1CN(C(=O)CCc2nncn2C)CC[C@@]1(O)C1CCC1` | 8.333 |
| `O=C([C@@H]1CSCN1)N1CCC2(CC1)CNCc1ccccc12` | 15.58 |
| `CCCn1cnnc1CNC1CCSC1` (stereo not shown) | 9.524 |
| `O=C(Cn1ccc2ccc(F)cc21)NC[C@@H]1CCCN2CCCC[C@H]12` | 1.809 |
| `COc1ccccc1OCC(=O)NS(=O)(=O)c1cccnc1` | 9.922 |
| `COCCCN1CC2(CCCN(c3ncnc4[nH]cnc34)C2)CCC1=O` (stereo not shown) | 6.186 |
| `Cc1occc1CNC(=O)N1CCC(Cc2cnn(C)c2)C1` (stereo not shown) | 18.95 |
| `Cc1ccc(CN2CCN(C(=O)c3ccccc3O)C(C)C2=O)cc1` (stereo not shown) | 12.69 |
| `Cc1cn2nc(N3CCn4c(nnc4C(C)C)C3)sc2n1` | 2.842 |
| `c1cnc(NCc2noc3c2CN(C2CCOC2)CC3)nc1` (stereo not shown) | 3.763 |

Repeated from the top, 8 entries:

* CC(C(=O)N1CCCN(Cc2ccc(C#N)cc2)CC1)n1cccn1 (stereo not shown) | 12.02%
* COc1cc(-c2cc(N)ncn2)cc(OC)c1OC | 9.951%
* NC(=O)C1CN(C(=O)NCC2(c3ccc(F)cc3)CCC2)CCO1 (stereo not shown) | 9.763%
* c1cc(CNCC2CNc3ccnn3C2)cc(N2CCCCC2)n1 (stereo not shown) | 22.92%
* Cc1cc(C)n(CC(C)CNC(=O)CCc2ccco2)n1 (stereo not shown) | 10.14%
* COCC(=O)N1C[C@@H](c2cccc(OC)c2)[C@@]2(CCCCC(=O)N2)C1 | 10.64%
* CC(=O)N1CCC(CCNC(C)c2cc(C)cc(C)c2)CC1 (stereo not shown) | 1.344%
* NC(=O)c1ccc(OCC(=O)NC2CCc3c(F)cccc32)cc1 (stereo not shown) | 8.803%

From ChEMBL document CHEMBL3988442, “University of Dundee, Small-Polar-MMV Screening Library” (2021).